Earlier results, collected in patent publication US6203813A, “Pharmaceutical delivery device and method of preparation therefor” (priority 1998, dated 2001).
At least one read-out could not be matched to a standard name with certainty.

Details: conventional oral methods of naltrexone delivery; cited from earlier work

For `O=C1CC[C@@]2(O)[C@H]3Cc4ccc(O)c5c4[C@@]2(CCN3CC2CC2)[C@H]1O5` [naltrexone, N-cyclopropylmethylnoroxy morphone], the “level in the blood stream by conventional oral delivery” value is given as “approximately 100 ng/l”.
